System: A549 cells
Experiment: Cell survival assay
Type: cell-based
Settings: Homo sapiens, A549, 48 h, read-out: IC50 (cytotoxicity)

## CC(=O)O[C@H]1C(=O)[C@@]2(C)[C@H]([C@H](OC(=O)c3ccccc3)[C@]3(O)C[C@H](OC(=O)[C@H](O)[C@@H](NC(=O)c4ccccc4)c4ccccc4)C(C)=C1C3(C)C)[C@]1(OC(C)=O)CO[C@@H]1C[C@@H]2O [PTX, paclitaxel]
  IC50: 7.5 ± 2.4 nM

Source: article PMC12094199 (Science Advances, 2025)
